Our source for the log2 fold change values is the supplement of paper PMC10849652.

Chains of the proteins cited; added tags and fusions are not shown. Lines headed by an entry give the natural chain unless they say otherwise; changes in a name come on top.
UniProt Q3ZCQ8: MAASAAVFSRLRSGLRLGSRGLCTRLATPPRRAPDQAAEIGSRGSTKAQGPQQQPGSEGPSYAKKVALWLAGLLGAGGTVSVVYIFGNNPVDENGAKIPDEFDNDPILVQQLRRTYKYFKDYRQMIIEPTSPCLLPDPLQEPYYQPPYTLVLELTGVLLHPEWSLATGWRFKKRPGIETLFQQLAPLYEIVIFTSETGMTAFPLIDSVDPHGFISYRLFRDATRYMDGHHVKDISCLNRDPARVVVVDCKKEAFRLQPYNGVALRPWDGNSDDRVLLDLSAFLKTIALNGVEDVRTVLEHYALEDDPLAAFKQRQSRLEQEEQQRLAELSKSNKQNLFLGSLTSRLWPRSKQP
UniProt P15923: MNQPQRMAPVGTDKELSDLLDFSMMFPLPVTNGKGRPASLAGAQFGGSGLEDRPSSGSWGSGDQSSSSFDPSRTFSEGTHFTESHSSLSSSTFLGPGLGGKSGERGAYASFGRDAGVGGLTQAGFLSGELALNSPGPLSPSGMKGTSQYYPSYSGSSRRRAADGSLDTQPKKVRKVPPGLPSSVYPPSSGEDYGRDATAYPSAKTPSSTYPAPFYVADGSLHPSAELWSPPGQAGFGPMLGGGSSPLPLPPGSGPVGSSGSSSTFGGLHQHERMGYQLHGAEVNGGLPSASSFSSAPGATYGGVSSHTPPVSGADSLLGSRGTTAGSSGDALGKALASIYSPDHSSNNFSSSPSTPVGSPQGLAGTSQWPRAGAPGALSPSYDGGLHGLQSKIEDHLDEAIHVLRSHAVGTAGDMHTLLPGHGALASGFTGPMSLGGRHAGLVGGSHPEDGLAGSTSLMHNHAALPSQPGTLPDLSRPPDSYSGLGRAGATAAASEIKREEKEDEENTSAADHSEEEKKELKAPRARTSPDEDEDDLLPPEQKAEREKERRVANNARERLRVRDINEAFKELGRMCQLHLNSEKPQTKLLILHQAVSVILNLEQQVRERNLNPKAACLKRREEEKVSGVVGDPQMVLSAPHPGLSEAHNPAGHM
UniProt Q8NI27: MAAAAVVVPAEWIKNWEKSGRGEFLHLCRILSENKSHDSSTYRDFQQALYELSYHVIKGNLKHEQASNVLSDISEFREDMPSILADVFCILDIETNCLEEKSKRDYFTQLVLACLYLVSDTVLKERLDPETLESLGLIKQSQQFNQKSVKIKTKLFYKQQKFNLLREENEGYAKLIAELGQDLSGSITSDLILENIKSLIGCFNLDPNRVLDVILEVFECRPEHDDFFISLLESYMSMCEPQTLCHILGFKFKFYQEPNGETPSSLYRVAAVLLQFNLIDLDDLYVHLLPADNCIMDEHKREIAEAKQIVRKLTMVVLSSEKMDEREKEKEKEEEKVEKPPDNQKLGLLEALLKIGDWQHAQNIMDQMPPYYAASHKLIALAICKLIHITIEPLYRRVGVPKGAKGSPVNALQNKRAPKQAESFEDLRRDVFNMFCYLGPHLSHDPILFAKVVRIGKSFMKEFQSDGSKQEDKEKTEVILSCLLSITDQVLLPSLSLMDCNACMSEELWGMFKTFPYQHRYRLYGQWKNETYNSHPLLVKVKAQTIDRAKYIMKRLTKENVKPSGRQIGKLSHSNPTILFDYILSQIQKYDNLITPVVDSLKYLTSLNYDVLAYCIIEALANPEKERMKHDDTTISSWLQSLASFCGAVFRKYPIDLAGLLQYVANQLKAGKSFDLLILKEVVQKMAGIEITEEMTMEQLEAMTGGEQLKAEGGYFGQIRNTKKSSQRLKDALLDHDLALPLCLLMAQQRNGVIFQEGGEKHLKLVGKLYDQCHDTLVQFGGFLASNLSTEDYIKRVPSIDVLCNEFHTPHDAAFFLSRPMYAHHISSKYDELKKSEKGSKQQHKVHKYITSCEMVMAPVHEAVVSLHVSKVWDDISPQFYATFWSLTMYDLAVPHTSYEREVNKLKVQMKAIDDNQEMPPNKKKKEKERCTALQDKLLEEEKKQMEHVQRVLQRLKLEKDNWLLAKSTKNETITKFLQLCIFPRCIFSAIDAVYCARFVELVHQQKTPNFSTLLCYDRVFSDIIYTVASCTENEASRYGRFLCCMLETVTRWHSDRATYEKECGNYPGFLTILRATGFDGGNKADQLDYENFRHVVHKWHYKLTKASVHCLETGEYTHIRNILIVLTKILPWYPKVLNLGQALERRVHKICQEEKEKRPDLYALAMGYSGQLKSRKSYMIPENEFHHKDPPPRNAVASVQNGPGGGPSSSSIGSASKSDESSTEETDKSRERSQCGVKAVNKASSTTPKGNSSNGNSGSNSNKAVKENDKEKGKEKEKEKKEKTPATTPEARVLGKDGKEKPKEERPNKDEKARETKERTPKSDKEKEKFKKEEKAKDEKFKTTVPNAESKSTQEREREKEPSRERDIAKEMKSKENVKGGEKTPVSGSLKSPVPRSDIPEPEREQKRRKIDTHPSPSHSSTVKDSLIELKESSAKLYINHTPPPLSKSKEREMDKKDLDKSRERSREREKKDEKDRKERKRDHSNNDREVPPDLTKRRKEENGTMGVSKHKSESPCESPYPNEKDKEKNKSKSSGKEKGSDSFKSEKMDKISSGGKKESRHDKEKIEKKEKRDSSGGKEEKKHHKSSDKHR
UniProt Q8IYQ7: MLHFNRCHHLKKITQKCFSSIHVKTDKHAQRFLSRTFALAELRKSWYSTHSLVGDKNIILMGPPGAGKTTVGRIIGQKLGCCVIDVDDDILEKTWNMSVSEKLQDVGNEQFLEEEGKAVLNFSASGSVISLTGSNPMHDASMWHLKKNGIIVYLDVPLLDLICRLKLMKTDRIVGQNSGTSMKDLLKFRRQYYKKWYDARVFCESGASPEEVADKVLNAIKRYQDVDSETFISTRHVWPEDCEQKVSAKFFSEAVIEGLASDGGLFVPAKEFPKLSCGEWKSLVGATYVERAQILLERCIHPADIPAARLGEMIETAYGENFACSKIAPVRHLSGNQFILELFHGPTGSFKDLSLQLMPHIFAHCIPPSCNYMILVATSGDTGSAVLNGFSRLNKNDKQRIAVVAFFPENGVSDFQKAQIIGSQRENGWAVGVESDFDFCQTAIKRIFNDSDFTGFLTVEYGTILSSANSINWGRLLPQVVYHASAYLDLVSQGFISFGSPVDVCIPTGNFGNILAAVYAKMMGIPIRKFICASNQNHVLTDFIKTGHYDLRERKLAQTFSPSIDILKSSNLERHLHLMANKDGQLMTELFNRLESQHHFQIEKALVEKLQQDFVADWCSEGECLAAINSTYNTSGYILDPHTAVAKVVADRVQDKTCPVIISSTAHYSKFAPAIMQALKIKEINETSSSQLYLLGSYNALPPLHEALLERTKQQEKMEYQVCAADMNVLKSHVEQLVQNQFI
UniProt Q6I9Y2: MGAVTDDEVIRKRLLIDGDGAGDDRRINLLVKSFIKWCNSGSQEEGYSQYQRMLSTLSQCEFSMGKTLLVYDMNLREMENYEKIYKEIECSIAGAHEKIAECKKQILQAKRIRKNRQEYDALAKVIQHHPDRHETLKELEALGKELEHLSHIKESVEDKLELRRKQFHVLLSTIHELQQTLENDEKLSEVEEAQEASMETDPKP
UniProt Q9Y2W6: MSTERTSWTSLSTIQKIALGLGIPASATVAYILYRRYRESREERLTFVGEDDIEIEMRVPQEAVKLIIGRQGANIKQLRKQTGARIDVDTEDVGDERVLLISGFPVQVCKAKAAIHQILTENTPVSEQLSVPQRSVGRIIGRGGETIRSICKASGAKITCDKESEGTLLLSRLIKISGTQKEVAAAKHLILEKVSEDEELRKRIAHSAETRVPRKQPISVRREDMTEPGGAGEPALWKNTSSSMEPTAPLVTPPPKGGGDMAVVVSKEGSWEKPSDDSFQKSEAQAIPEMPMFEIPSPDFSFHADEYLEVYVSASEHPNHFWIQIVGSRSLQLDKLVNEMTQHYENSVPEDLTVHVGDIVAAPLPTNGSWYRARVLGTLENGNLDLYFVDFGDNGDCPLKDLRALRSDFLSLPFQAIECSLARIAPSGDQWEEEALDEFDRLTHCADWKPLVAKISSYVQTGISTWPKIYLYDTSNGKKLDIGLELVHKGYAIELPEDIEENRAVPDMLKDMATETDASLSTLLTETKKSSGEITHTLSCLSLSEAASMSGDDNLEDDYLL
UniProt P02787, whole entry, looked up: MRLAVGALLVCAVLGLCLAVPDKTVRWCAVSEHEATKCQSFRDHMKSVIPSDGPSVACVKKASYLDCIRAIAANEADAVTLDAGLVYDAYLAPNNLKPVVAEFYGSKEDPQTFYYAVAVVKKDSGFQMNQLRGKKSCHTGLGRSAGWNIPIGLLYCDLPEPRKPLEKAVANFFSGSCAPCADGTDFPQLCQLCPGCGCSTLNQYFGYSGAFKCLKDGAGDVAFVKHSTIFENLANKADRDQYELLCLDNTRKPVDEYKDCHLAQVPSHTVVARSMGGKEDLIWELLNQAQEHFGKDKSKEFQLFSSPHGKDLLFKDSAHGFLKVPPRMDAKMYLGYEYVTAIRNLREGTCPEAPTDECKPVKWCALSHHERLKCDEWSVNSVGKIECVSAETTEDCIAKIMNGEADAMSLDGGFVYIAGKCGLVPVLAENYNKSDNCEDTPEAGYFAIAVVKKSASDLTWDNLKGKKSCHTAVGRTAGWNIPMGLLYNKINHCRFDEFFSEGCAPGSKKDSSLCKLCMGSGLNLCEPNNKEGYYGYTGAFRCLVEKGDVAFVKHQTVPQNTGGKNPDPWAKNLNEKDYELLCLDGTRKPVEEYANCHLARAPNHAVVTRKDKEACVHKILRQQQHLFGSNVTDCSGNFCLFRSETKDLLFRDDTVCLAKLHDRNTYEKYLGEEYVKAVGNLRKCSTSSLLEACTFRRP
UniProt O95551: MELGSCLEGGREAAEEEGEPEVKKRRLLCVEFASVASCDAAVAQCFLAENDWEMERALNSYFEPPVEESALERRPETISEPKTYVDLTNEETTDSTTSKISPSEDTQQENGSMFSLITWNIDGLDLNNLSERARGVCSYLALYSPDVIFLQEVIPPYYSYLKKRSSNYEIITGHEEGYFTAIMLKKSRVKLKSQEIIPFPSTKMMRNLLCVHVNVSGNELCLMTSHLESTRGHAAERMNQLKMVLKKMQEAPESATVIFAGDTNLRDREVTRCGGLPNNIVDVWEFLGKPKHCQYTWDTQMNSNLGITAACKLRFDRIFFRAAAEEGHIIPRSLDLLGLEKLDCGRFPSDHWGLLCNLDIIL
UniProt Q86W42: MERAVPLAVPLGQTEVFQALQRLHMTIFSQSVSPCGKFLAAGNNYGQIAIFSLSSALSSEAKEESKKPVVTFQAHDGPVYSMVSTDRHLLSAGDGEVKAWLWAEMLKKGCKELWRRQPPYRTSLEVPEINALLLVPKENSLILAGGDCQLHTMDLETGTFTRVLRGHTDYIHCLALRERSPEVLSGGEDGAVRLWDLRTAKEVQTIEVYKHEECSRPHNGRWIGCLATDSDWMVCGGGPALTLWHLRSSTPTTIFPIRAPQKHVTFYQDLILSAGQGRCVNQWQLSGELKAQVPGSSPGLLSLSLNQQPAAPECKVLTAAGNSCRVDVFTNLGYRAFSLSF
UniProt P17987, whole entry, looked up: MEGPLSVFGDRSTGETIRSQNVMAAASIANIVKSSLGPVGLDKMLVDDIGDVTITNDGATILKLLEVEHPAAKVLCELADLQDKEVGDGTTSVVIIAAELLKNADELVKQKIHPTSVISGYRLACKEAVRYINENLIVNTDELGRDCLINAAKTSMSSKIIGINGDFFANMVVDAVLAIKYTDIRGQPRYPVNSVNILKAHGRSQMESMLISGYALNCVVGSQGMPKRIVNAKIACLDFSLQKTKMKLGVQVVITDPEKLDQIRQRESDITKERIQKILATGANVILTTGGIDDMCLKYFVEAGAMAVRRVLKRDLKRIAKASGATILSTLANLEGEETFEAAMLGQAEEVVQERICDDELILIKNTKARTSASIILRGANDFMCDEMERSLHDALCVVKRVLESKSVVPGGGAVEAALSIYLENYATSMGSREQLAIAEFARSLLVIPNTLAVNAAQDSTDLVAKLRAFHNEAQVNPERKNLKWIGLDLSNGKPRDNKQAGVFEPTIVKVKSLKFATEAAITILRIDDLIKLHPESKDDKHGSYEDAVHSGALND
UniProt Q9BZK7: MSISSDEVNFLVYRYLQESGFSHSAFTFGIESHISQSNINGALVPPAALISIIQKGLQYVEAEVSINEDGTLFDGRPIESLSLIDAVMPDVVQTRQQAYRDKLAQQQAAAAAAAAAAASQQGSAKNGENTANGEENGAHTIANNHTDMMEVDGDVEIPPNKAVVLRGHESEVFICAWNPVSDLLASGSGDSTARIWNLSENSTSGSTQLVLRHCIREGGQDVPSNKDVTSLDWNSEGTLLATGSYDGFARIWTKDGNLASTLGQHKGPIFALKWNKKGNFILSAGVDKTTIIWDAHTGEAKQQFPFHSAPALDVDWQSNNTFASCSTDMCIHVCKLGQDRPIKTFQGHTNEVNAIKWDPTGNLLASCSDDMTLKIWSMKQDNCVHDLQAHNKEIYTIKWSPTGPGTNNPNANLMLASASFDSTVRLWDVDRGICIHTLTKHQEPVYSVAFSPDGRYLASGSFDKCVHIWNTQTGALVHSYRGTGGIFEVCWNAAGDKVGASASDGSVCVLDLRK

Some of the results follow.

Compound in one experiment: CC(C)(O)CC(=O)NCCn1ccc2ncnc(Nc3ccc(Oc4cccc(C(F)(F)F)c4)c(Cl)c3)c21
As to the kind of experiment: log2 fold change, soluble protein after heating vs DMSO (PISA); higher = thermal stabilisation; K562 cells, 10 uM, 30 min; active = over 0.2 and 3.5 SD of the protein, either way, in both replicates (recomputed). In outline: (§1)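 K562 cells at 2×10^6 cells/mL were treated with 10 μM compound for 30 min. Aliquots were heated for 3 min across 48°C-58°C, pooled, and extracted in PBS with 0.5% NP-40 at 4°C; soluble protein was the supernatant after 21,000xg for 90 min. Soluble protein was quantified by TMTpro 16plex LC-MS/MS with channel sums equalised, and reported as log2 fold change in thermal stability against DMSO controls, with values from duplicates.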
In the case of TJAP1 (UniProt Q5JTD0), the log2 fold change was inactive: -0.019.
Take TCEA1 (UniProt P23193): the log2 fold change is inactive: 0.
Same read-out and setting: then TIMM50 isoform 2 (UniProt Q3ZCQ8), with inactive: -0.091.
Still for that read-out and setting: for THUMPD1 (UniProt Q9NXG2) the value was inactive: -0.009.
Still for that read-out and setting: then THBS1 (UniProt P07996), with inactive: 0.186; and TCIRG1 (UniProt Q13488), with inactive: 0.104.
Consider TCF3 (UniProt P15923), for which the log2 fold change is inactive: -0.061.
With THOC1 (UniProt Q96FV9), the log2 fold change is inactive: -0.033.
As to THOC2 (UniProt Q8NI27), the log2 fold change is inactive: -0.052.
Take THNSL1 (UniProt Q8IYQ7): the log2 fold change is inactive: -0.074.
Same read-out and setting: then TBC1D22B (UniProt Q9NU19), with inactive: -0.198; and TLCD4 (UniProt Q96MV1), with inactive: -0.012; and THOC7 (UniProt Q6I9Y2), with inactive: 0.043.
Consider TKFC (UniProt Q3LXA3), for which the log2 fold change was inactive: 0.026.
On the same count and under the same terms, then TGFBR3 (UniProt Q03167), with inactive: 0.013; and TKT isoform 2 (UniProt P29401), with inactive: 0.008; and TDRKH (UniProt Q9Y2W6), with inactive: 0.003.
On the same count and under the same terms, for TGOLN2 isoform 7 (UniProt O43493) the value was inactive: -0.032; for TBCC (UniProt Q15814), inactive: 0; for TF (UniProt P02787), inactive: 0.304.
Consider TDP2 isoform 2 (UniProt O95551), for which the log2 fold change was inactive: -0.104.
As for TERF2 (UniProt Q15554), the log2 fold change was inactive: -0.11.
In the case of THOC6 (UniProt Q86W42), the log2 fold change is inactive: -0.004.
Consider TBCB (UniProt Q99426), for which the log2 fold change was inactive: -0.019.
Still for that read-out and setting: then TIMMDC1 (UniProt Q9NPL8), with inactive: -0.029; and TBCE (UniProt Q15813), with inactive: 0.001; and TK2 isoform 6 (UniProt O00142), with inactive: -0.051.
Still for that read-out and setting: then TIMM23 (UniProt O14925), with inactive: -0.004; and TET1 (UniProt Q8NFU7), with inactive: -0.185.
TCP1 (UniProt P17987): the log2 fold change was inactive: -0.003.
Same read-out and setting: for TBL1X (UniProt O60907) the value was inactive: -0.053; for TFB1M (UniProt Q8WVM0), inactive: 0.031; for TBL3 (UniProt Q12788), inactive: 0.02.
Turning to TIMM8B (UniProt Q9Y5J9), the log2 fold change was inactive: -0.056.
On the same count and under the same terms, then TBC1D4 (UniProt O60343), with inactive: -0.073; and TGM2 (UniProt P21980), with inactive: -0.027.
With TBL1XR1 (UniProt Q9BZK7), the log2 fold change was inactive: -0.002.
Same read-out and setting: then TESC (UniProt Q96BS2), with inactive: 0.001.
The same measure, in the same setting: then TCF12 isoform 3 (UniProt Q99081), with inactive: -0.114.

Compound in the next experiment: CC(C)C1=C2N=C(C=C(N2N=C1)NCC3=CC=CC=C3)NCCCCCCN
The experiment is described as above. The essentials: as §1
Take TJAP1 (UniProt Q5JTD0): the log2 fold change was inactive: 0.01.
In the case of TCEA1 (UniProt P23193), the log2 fold change was inactive: 0.029.
TIMM50 isoform 2 (UniProt Q3ZCQ8): the log2 fold change is inactive: -0.014.
The same measure, in the same setting: then THUMPD1 (UniProt Q9NXG2), with inactive: 0.026; and THBS1 (UniProt P07996), with inactive: 0.063.
In the case of TCIRG1 (UniProt Q13488), the log2 fold change is inactive: -0.461.
On the same count and under the same terms, then TCF3 (UniProt P15923), with inactive: -0.075; and THOC1 (UniProt Q96FV9), with inactive: -0.025; and THOC2 (UniProt Q8NI27), with inactive: -0.144.
Same read-out and setting: then THNSL1 (UniProt Q8IYQ7), with inactive: -0.059; and TBC1D22B (UniProt Q9NU19), with inactive: -0.034; and TLCD4 (UniProt Q96MV1), with inactive: 0.063.
The same measure, in the same setting: for THOC7 (UniProt Q6I9Y2) the value was inactive: -0.025.
Regarding TKFC (UniProt Q3LXA3), the log2 fold change is inactive: 0.062.
TGFBR3 (UniProt Q03167): the log2 fold change was inactive: 0.181.
On the same count and under the same terms, then TKT isoform 2 (UniProt P29401), with inactive: 0.091; and TDRKH (UniProt Q9Y2W6), with inactive: -0.1; and TGOLN2 isoform 7 (UniProt O43493), with inactive: 0.05.
Regarding TBCC (UniProt Q15814), the log2 fold change is inactive: -0.042.
Still for that read-out and setting: then TF (UniProt P02787), with inactive: 0.043.
Take TDP2 isoform 2 (UniProt O95551): the log2 fold change was inactive: -0.097.
Still for that read-out and setting: then TERF2 (UniProt Q15554), with inactive: -0.045.
On the same count and under the same terms, then THOC6 (UniProt Q86W42), with inactive: 0.051; and TBCB (UniProt Q99426), with inactive: -0.013.
In the case of TIMMDC1 (UniProt Q9NPL8), the log2 fold change is inactive: 0.027.
Consider TBCE (UniProt Q15813), for which the log2 fold change is inactive: -0.2.
On the same count and under the same terms, for TK2 isoform 6 (UniProt O00142) the value was inactive: 0.128; for TIMM23 (UniProt O14925), inactive: 0.038.
Still for that read-out and setting: then TET1 (UniProt Q8NFU7), with inactive: 0.219; and TCP1 (UniProt P17987), with inactive: 0.025.
Take TBL1X (UniProt O60907): the log2 fold change was inactive: 0.037.
Same read-out and setting: for TFB1M (UniProt Q8WVM0) the value was inactive: 0.067; for TBL3 (UniProt Q12788), inactive: 0.054.
Turning to TIMM8B (UniProt Q9Y5J9), the log2 fold change is inactive: 0.065.
The same measure, in the same setting: then TBC1D4 (UniProt O60343), with inactive: -0.098; and TGM2 (UniProt P21980), with inactive: 0.014.
Still for that read-out and setting: then TBL1XR1 (UniProt Q9BZK7), with inactive: 0.058; and TESC (UniProt Q96BS2), with inactive: -0.045.
In the case of TCF12 isoform 3 (UniProt Q99081), the log2 fold change was inactive: -0.125.
